From paper PMC10362694
Results are given in words; binding and its absence hold for the method and conditions named. Binding seen in cells or lysates may run through a third protein. Some results given as binding are weak or reduced against the parent protein; the word gives no strength.

Chains of the proteins cited; added tags and fusions are not shown.
UniProt P46937: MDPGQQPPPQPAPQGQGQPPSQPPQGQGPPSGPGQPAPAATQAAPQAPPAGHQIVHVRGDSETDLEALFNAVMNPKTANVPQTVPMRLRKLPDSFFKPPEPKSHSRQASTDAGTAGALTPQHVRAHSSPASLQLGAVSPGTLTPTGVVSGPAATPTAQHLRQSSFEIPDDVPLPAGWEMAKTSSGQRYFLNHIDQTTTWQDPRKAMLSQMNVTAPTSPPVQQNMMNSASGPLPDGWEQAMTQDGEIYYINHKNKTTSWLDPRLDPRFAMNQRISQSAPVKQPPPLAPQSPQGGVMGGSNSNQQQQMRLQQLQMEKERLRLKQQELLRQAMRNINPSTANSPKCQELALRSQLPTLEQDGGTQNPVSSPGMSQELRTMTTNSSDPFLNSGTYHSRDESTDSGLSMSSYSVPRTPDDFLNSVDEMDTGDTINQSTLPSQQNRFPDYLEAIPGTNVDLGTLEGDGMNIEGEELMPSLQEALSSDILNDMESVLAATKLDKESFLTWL

T1: tyrosine 3-monooxygenase/tryptophan 5-monooxygenase activation protein eta (YWHAH) (human (endogenous in OSRC-2 and 786-O)) (UniProt Q04917)
T1 sequence: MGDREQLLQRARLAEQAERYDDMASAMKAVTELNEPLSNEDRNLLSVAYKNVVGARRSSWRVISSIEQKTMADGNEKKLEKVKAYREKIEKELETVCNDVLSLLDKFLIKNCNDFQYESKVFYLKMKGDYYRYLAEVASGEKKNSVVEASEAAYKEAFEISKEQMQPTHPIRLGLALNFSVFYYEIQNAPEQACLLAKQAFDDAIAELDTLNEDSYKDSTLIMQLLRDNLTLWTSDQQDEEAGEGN


Columns and labels:
[1] = target: T1, tyrosine 3-monooxygenase/tryptophan 5-monooxygenase activation protein eta (YWHAH) (human (endogenous in OSRC-2 and 786-O)); assay: co-IP; endogenous proteins in nuclear extracts of OSRC-2 and 786-O cells; anti-YWHAH and anti-YAP antibodies, western blot
[2] = target: T1, tyrosine 3-monooxygenase/tryptophan 5-monooxygenase activation protein eta (YWHAH) (human (endogenous in OSRC-2 and 786-O)); assay: co-IP; endogenous proteins in whole-cell RIPA lysates of OSRC-2 and 786-O cells; 5 µg anti-YWHAH, anti-YAP or IgG antibody at 4 °C overnight, protein A/G magnetic beads 2 h at 4 °C, western blot
[3] = target: Yes1-associated transcriptional regulator (YAP) (human (endogenous in OSRC-2 and 786-O)) (UniProt P46937); assay: co-IP; endogenous proteins in nuclear extracts of OSRC-2 and 786-O cells; anti-YWHAH and anti-YAP antibodies, western blot
[4] = target: Yes1-associated transcriptional regulator (YAP) (human (endogenous in OSRC-2 and 786-O)) (UniProt P46937); assay: co-IP; endogenous proteins in whole-cell RIPA lysates of OSRC-2 and 786-O cells; 5 µg anti-YWHAH, anti-YAP or IgG antibody at 4 °C overnight, protein A/G magnetic beads 2 h at 4 °C, western blot

binding [1]	binding [2]	binding [3]	binding [4]	Molecule
binds	binds			Yes1-associated transcriptional regulator (YAP) (from UniProt P46937 1-504)
		binds	binds	tyrosine 3-monooxygenase/tryptophan 5-monooxygenase activation protein eta (YWHAH) (protein, UniProt Q04917 1-246) MGDREQLLQRARLAEQAERYDDMASAMKAVTELNEPLSNEDRNLLSVAYKNVVGARRSSWRVISSIEQKTMADGNEKKLEKVKAYREKIEKELETVCNDVLSLLDKFLIKNCNDFQYESKVFYLKMKGDYYRYLAEVASGEKKNSVVEASEAAYKEAFEISKEQMQPTHPIRLGLALNFSVFYYEIQNAPEQACLLAKQAFDDAIAELDTLNEDSYKDSTLIMQLLRDNLTLWTSDQQDEEAGEGN
